Data as given in US6692743B1, “Apoptosis of naive human NK cells by crosslinking of their FcγRIIIa molecules with a rat IgG2b (LO-CD2a/BTI-322) or its IgG1 humanized monoclonal antibody” (Universite Catholique de Louvain, priority 1998, dated 2004).
At least one structure is not confirmed: it was looked up by name or label, or the drawing left a doubt.

Test system: freshly isolated NK cells
Assay: Effect of different inhibitors on LO-CD2a mediated NK apoptosis (PI, flow cytometry)
Type: cell-based, human
Conditions: 3 h pre-incubation with inhibitor, then 3 hours with LO-CD2a; 5 donors
Description: Effect of different inhibitors on LO-CD2a mediated NK apoptosis. 100 ul of freshly isolated NK cells (10^6/ml) were pre-incubated for 3 h at 37° C. in a 96 well plate with EGTA (20 mM), staurosporin (250 nM), quinacrine ([…]), cyclosporin A ([…]), FK506 ([…]), wortmannin (500 ng/ml), concanamycin A ([…]), cytochalasine D (1 mg/ml), actinomycin) (500 ng/ml final concentration), NOK-1 (25 mg/ml) or medium alone. After incubation for 3 hours with LO-CD2a ([…] final concentration) propidium iodide was added and cell mortality was analysed by flow cytometry.

Row | SMILES | inhibition of LO-CD2a mediated NK apoptosis (in words)
1 | C=CC[C@@H]1/C=C(\C)C[C@H](C)C[C@H](OC)[C@H]2O[C@@](O)(C(=O)C(=O)N3CCCC[C@H]3C(=O)O[C@H](/C(C)=C/[C@@H]3CC[C@@H](O)[C@H](OC)C3)[C@H](C)[C@@H](O)CC1=O)[C@H](C)C[C@@H]2OC [FK506] | did not inhibit cell death
2 | COC[C@H]1OC(=O)c2coc3c2[C@@]1(C)C1=C(C3=O)[C@@H]2CCC(=O)[C@@]2(C)C[C@H]1OC(C)=O [Wortmannin] | failed to inhibit apoptosis
